Assay results published in PubChem BioAssay AID2685 (National Center for Advancing Translational Sciences (NCATS), 2010).
The whole screen tested about 320,000 compounds, of which about 2,100 (0.66%) were called active. This list was built around the results that the source calls inconclusive (neither active nor inactive); the mix of calls is not that of the screen. Calls follow the shape of the dose curve; as a rule, active = well fitted inhibition curve with a large enough effect in the signal ratio, with a control signal flat (not every such curve was filed as active); inconclusive = small, poorly fitted or top-dose-only effect, or effect the other way, or a change in a side signal; inactive = flat fitted curve, though single readings scatter; the % refers to the signal ratio. Where the call is inconclusive, the potency comes from a doubtful curve fit.

Assay: qHTS Assay for Lipid Storage Modulators in Drosophila S3 Cells
Conditions: BODIPY lipid droplet fluorescence, 18-24 h, cells fed with added oleic acid; lipid storage change, negative = inhibition: at 46.1 µM (top of the series) unless noted
Procedure, shortened: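 Drosophila S3 cells loaded with oleic acid (400 uM, as added) and compounds at several concentrations; lipid droplets imaged by 488-nm laser-scanning cytometry, 500–530 nm intensity and object ratio to cell channel. Percent activity normalized to 20 uM Triacsin C.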
% is scaled to controls: 0 for no effect and ±100 for the full control effect; potency is read from the fitted curve at half-maximal effect.

Compound | Potency | lipid storage change, negative = inhibition
Cc1cccn2c(=O)c3cc(C(=O)NCCN4CCOCC4)n(C)c3nc12 | inconclusive: 2.06 µM [activator, partial curve] | 
COc1ccc(C(=O)N2CCCC(CCC(=O)NCc3ccc(F)c(F)c3)C2)o1 (configuration not stated) |  | inconclusive: -11.1%
Cc1ccc(NC(=O)C(=O)NCCN2CCN(C(=S)Nc3ccccc3)CC2)cc1 | inconclusive: 3.26 µM [activator, partial curve, poor fit] | 
CCn1cnc2cc(NCc3ccc(Br)cc3)ccc21 |  | inconclusive: 0.802%
Cn1c(=O)c2c(ncn2CCNC2=NCCCCC2)n(C)c1=O | inconclusive: 0.82 µM [falling, full curve, poor fit] | 
COc1cccc(NC(=O)C2CCC2)c1 | inconclusive: 4.61 µM [activator, partial curve, poor fit] | 
Cc1ccc(CC(=O)N2CCOCC2)cc1 |  | inconclusive: -0.752%
CCc1ccc(N(CC(=O)N2CCOCC2)S(C)(=O)=O)cc1 | inconclusive: 18.4 µM [falling, single point] | 
CCc1ccc(CCC(=O)Nc2ccc(S(N)(=O)=O)cc2)o1 |  | inconclusive: -38.3%
CCc1cc(CNC(=O)CCc2nnc(Cc3cccc(C)c3)o2)on1 |  | inconclusive: -20.8%
COc1ccc(CNC(=O)CSc2nnc3c(n2)[nH]c2ccc(C)cc23)cc1 | inconclusive: 6.51 µM [falling, single point] | 
O=C(CSC1=NCCS1)N1CCN(c2ccccc2)CC1 |  | inactive: -9.79%
COc1cccc(C(=O)N2CCN(C3CCN(Cc4ccccc4)CC3)CC2)c1 |  | inconclusive: -1.15%
CCn1c(CCNC(=O)c2ccc(C)cc2)n[nH]c1=S |  | inactive: 18%
CCCS(=O)(=O)N1CCN(Cc2ccccc2C(F)(F)F)CC1 |  | inconclusive: -8.53%
CC(=O)Oc1ccc(C(=O)[C@H]2[C@H]3C(=O)N(c4ccc(C)cc4C)C(=O)[C@H]3[C@@H]3C=CC=NN32)cc1 |  | inconclusive: 13.7%
CC(=O)c1c(C)[nH]c(C(=O)OCc2cccc(Cl)c2)c1C |  | inconclusive: -14.9%
CC(=O)NS(=O)(=O)c1ccccc1 |  | inactive: -11.7%
Cc1csc(NC(=O)C2CCCN(S(=O)(=O)c3cnc[nH]3)C2)n1 (configuration not stated) |  | inconclusive: -51.2%
CN(C)C(=O)CN1CCN(Cc2cn(C)nc2-c2ccc3c(c2)OCCO3)CC1 |  | inconclusive: 27.4%
CCOC(=O)COc1c(Cl)cc(C2NC(=S)NC(c3ccccc3)=C2C(C)=O)cc1OC (configuration not stated) |  | inconclusive: 15.4%
CON(c1nc(Cl)nc(N(C)C)n1)S(=O)(=O)c1ccc(C)cc1 |  | inconclusive: -79.7%
CCc1ccc(N2CC(C(=O)NC3CC3)CC2=O)cc1 (configuration not stated) |  | inconclusive: 10.9%
O=C(CCNS(=O)(=O)c1ccc(Br)cc1)NCCCSc1ccccc1 | inconclusive: 6.51 µM [falling, partial curve] | 
COc1cc(NC(=O)c2cc3nc(C)cc(C)n3n2)c(OC)cc1Cl |  | inconclusive: -31.7%
COCCNc1nc(N)c([N+](=O)[O-])c(NCCO)n1 |  | inconclusive: 23.9%

Molecules listed so far that have two or more sulfur atoms, in the order listed:
Compound | Potency | lipid storage change, negative = inhibition
O=C(CSC1=NCCS1)N1CCN(c2ccccc2)CC1 |  | inactive: -9.79%
Cc1csc(NC(=O)C2CCCN(S(=O)(=O)c3cnc[nH]3)C2)n1 (configuration not stated) |  | inconclusive: -51.2%
O=C(CCNS(=O)(=O)c1ccc(Br)cc1)NCCCSc1ccccc1 | inconclusive: 6.51 µM [falling, partial curve] | 

Continued:

Compound | Potency | lipid storage change, negative = inhibition
CSC1=NC(=O)/C(=C/c2ccc(SC)cc2)S1 |  | inconclusive: 5.7%
COc1ccc(OC)c(NC(=O)c2cc(-c3cc(C)cc(C)c3O)n[nH]2)c1 | inconclusive: 29.1 µM [cytotoxic, single point] | 
COc1ccccc1N1CCN(C(=O)c2ccc(S(=O)(=O)N3CCCCC3)cc2)CC1 | inconclusive: 6.51 µM [activator, single point] | 
CC(C)Oc1cccc(C(=O)Nc2ncn[nH]2)c1 | inconclusive: 29.1 µM [activator, single point] | 
CCOC(=O)c1cnn(Cc2ccccc2Cl)c1N | inconclusive: 2.06 µM [activator, partial curve] | 
N=C(N)SCc1ncccc1O |  | inconclusive: -21.5%
Cc1nc(C)c(C(=O)OCC(=O)Nc2cccc(C)c2C)s1 | active: 16.4 µM | 
Cc1ccccc1NC(=O)C1CCCN(S(=O)(=O)c2ccc3c(c2)C(C)(C)C(=O)N3C)C1 (configuration not stated) |  | inconclusive: -27.2%
CC(C)C[C@@H](CC#N)N1CCN(CCc2ccccc2)CCC1=O |  | inconclusive: -40.4%
COc1ccccc1CCNC(=O)C1CCN(C(=O)/C=C/c2ccccc2)CC1 |  | inconclusive: 1.98%
COc1ccc(/C=N/NC(=O)Cc2n[nH]c(=O)[nH]c2=O)cc1 |  | inconclusive: -14.1%
C/C(=N\NC(=O)C1(C)CC1(Br)Br)c1cccc(NC(=O)C2CCC2)c1 (configuration not stated) |  | inconclusive: 15%
Cc1ncc(S(=O)(=O)c2ccccc2)c(-c2ccccc2Cl)n1 |  | inconclusive: -51.5%
CC1CCCCC1NC(=O)CSc1nnc(CN2CCOCC2)n1C (configuration not stated) |  | inconclusive: -9.07%
CC1CCN(c2nc3ccccn3c(=O)c2C=O)CC1 |  | inconclusive: 24.9%
Cc1ccnc(SCc2cn3c(C)cccc3n2)n1 |  | inconclusive: -12.2%
O=C(Nc1nc2ccccc2[nH]1)c1ccccc1 | inconclusive: 6.51 µM [activator, single point] | 
CCN(C(=O)CSc1nnnn1-c1cc(C)ccc1OC)C1CCS(=O)(=O)C1 (configuration not stated) |  | inconclusive: 18.5%
CC(=O)Nc1ccc(NC(=O)c2nc(S(=O)(=O)Cc3cccc(C)c3)ncc2Cl)cc1 |  | inconclusive: -100%
CCc1ccccc1NC(=O)c1ccc2snnc2c1 | inconclusive: 29.1 µM [activator, single point] | 
COc1ccc(N2CCN(C(=S)Nc3ccc(OC)cc3OC)CC2)cc1 |  | inconclusive: 80.1%
CCC(=O)NNc1nc2c(F)cc(F)cc2s1 |  | inconclusive: 9.42%
COc1ccc(S(=O)(=O)N2CCCC2CNC(=O)C(=O)NCc2cccs2)cc1 (configuration not stated) |  | inconclusive: 17.3%
Oc1cc(OCc2ccccc2)ccc1-c1[nH]ncc1-c1ccccc1 |  | inconclusive: -91.1%
O=C(Nc1ccc2c(c1)OCO2)N1CCN(c2ccccc2)CC1 |  | inconclusive: 15.9% [at 9.22 µM]
Cc1ccc(-c2nn(-c3ccccc3)cc2C(=O)NCCCN2CCCC2=O)cc1 |  | inconclusive
